These results are taken from paper PMC6547884, “Molecular Basis for poly(A) RNP Architecture and Recognition by the Pan2-Pan3 Deadenylase” (Cell, 2019).

These are yes or no findings as the source states them, for the method shown. Some binding calls cover weakened binding; strength is not graded here.

For one test, the target named is T1, human PAN3 (human) (UniProt Q58A45).
T1 sequence: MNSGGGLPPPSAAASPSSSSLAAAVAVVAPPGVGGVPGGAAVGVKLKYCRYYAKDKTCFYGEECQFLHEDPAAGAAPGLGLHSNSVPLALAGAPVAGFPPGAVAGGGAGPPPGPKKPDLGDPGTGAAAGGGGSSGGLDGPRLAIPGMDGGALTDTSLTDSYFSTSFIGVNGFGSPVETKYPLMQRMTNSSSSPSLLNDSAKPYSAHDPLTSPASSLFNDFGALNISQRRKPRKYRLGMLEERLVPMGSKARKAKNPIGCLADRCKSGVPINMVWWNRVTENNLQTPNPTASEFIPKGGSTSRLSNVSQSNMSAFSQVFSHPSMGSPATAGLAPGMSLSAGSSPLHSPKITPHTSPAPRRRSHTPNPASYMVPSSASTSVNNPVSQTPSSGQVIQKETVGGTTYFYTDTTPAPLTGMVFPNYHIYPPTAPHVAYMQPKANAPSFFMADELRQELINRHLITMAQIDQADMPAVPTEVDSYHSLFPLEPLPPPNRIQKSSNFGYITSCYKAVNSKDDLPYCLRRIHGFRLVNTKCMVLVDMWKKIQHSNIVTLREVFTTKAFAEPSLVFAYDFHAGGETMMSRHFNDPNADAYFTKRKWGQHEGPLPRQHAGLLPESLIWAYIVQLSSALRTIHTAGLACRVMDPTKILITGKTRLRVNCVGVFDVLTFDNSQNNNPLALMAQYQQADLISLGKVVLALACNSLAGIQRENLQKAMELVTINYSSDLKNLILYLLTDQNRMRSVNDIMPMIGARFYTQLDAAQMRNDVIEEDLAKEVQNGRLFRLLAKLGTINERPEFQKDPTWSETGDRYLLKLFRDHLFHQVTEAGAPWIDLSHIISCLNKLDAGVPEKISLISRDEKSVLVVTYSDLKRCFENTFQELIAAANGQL
The experiment in a line: co-purification (IMAC, ion exchange, gel filtration); Pan2 and Pan3 variants co-expressed in insect cells; purified via the C-terminal deca-histidine tag on Pan3, then Mono Q and Superdex200 (20 mM HEPES pH 7.5, 200 mM NaCl).

The target in test [1] is T2, Ccr4(110-837) (S. cerevisiae) (UniProt P31384).
T2 sequence: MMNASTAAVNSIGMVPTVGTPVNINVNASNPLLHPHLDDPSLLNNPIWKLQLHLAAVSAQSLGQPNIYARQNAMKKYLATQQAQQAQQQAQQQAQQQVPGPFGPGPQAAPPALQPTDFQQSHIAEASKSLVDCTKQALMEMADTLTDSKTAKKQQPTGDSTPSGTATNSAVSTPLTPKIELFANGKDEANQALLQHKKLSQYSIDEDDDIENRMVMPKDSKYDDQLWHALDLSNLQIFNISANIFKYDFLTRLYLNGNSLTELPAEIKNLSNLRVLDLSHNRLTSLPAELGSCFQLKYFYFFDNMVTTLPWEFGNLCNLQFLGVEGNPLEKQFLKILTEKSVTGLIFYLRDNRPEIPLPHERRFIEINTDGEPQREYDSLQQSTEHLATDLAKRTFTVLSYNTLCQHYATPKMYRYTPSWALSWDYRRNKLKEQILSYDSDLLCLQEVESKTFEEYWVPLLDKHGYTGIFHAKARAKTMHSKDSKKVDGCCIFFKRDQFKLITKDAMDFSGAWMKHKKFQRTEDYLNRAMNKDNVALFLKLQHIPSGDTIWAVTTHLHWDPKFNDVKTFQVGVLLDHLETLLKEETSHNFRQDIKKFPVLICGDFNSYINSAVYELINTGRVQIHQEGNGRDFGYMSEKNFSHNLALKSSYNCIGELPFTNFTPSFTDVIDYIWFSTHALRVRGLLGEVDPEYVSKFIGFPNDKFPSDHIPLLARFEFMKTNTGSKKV
The experiment in a line: co-purification (IMAC, heparin, SEC); His-tagged Ccr4(110-837)-Caf1(146-433) co-expressed in insect cells; IMAC, heparin, Superdex200 (20 mM Tris pH 7.5, 250 mM NaCl, 1 mM DTT).

B1: human PAN2cat (D1087A) (enzyme, UniProt Q504Q3 1-1202)
chain: MNFEGLDPGLAEYAPAMHSALDPVLDAHLNPSLLQNVELDPEGVALEALPVQESVHIMEGVYSELHSVVAEVGVPVSVSHFDLHEEMLWVGSHGGHATSFFGPALERYSSFQVNGSDDIRQIQSLENGILFLTKNNLKYMARGGLIIFDYLLDENEDMHSLLLTDSSTLLVGGLQNHIIEIDLNTVQETQKYAVETPGVTIMRQTNRFFFCGHTSGKVSLRDLRTFKVEHEFDAFSGSLSDFDVHGNLLAACGFSSRLTGLACDRFLKVYDLRMMRAITPLQVHVDPAFLRFIPTYTSRLAIISQSGQCQFCEPTGLANPADIFHVNPVGPLLMTFDVSASKQALAFGDSEGCVHLWTDSPEPSFNPYSRETEFALPCLVDSLPPLDWSQDLLPLSLIPVPLTTDTLLSDWPAANSAPAPRRAPPVDAEILRTMKKVGFIGYAPNPRTRLRNQIPYRLKESDSEFDSFSQVTESPVGREEEPHLHMVSKKYRKVTIKYSKLGLEDFDFKHYNKTLFAGLEPHIPNAYCNCMIQVLYFLEPVRCLIQNHLCQKEFCLACELGFLFHMLDLSRGDPCQGNNFLRAFRTIPEASALGLILADSDEASGKGNLARLIQRWNRFILTQLHQDMQELEIPQAYRGAGGSSFCSSGDSVIGQLFSCEMENCSLCRCGSETVRASSTLLFTLSYPDGSKSDKTGKNYDFAQVLKRSICLDQNTQAWCDTCEKYQPTIQTRNIRHLPDILVINCEVNSSKEADFWRMQAEVAFKMAVKKHGGEISKNKEFALADWKELGSPEGVLVCPSIEELKNVWLPFSIRMKMTKNKGLDVCNWTDGDEMQWGPARAEEEHGVYVYDLMATVVHILDSRTGGSLVAHIKVGETYHQRKEGVTHQQWYLFNDFLIEPIDKHEAVQFDMNWKVPAILYYVKRNLNSRYNLNIKNPIEASVLLAEASLARKQRKTHTTFIPLMLNEMPQIGDLVGLDAEFVTLNEEEAELRSDGTKSTIKPSQMSVARITCVRGQGPNEGIPFIDDYISTQEQVVDYLTQYSGIKPGDLDAKISSKHLTTLKSTYLKLRFLIDIGVKFVGHGLQKAFRVINLMVPKDQVLDTVYLFHMPRKRMISLRFLAWYFLDLKIQGETHDSIEDARTALQLYRKYLELSKNGTEPESFHKVLKGLYEKGRKMDWKVPEPEGQTSPKNAAVFSSVLAL
In the case of B1, the binding entry in the test with human PAN3 (human) is reported as “binds”.

B2: Caf1(146-433) (domain or fragment, UniProt P39008 146-433)
chain: SMPPIFLPPPNYLFVRDVWKSNLYSEFAVIRQLVSQYNHVSISTEFVGTLARPIGTFRSKVDYHYQTMRANVDFLNPIQLGLSLSDANGNKPDNGPSTWQFNFEFDPKKEIMSTESLELLRKSGINFEKHENLGIDVFEFSQLLMDSGLMMDDSVTWITYHAAYDLGFLINILMNDSMPNNKEDFEWWVHQYMPNFYDLNLVYKIIQEFKNPQLQQSSQQQQQQQYSLTTLADELGLPRFSIFTTTGGQSLLMLLSFCQLSKLSMHKFPNGTDFAKYQGVIYGIDGDQ
For the molecule B2, in test [1], the binding result is listed as “binds”.
